For this test, the target named is T1, human CD39 endogenously expressed on Ramos human lymphoma cells (human) (UniProt P49961).
T1 sequence: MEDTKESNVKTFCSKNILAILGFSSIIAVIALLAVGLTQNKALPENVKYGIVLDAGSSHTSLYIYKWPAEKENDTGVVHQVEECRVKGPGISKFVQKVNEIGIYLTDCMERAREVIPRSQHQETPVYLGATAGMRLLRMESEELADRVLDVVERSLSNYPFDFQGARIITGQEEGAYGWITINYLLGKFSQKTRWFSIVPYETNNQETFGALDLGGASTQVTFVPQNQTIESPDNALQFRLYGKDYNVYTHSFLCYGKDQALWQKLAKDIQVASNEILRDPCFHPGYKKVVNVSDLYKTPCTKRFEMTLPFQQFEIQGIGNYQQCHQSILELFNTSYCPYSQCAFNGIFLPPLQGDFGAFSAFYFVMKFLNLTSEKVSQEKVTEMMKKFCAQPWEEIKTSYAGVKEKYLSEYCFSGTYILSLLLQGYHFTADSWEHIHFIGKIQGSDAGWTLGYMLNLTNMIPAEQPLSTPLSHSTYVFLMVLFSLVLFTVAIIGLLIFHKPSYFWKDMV
Description: flow cytometry, antibody titration on Ramos cells endogenously expressing CD39. On the technique in general: Flow cytometry measures light scatter and fluorescence of single cells or particles in a stream.

These are yes or no findings as the source states them, for the method shown. Some entries that bind do so weakly or less than the wild type.

For one molecule, binding results are on record in WO2018065552A1 (dated 2018).

B1: HH1/L0 (antibody, human IgG1, V domains shown)
VH: QVQLVQSGSELKKPGASVKVSCKASGYTFTHYGMNWVRQAPGQGLKWMGWINTYTGEPTYAQDFKGRFVFSLDTSVSTAYLQISSLKAEDTAVYYCARRRYEGNYVFYYFDYWGQGTTVTVSS
VL: DIQMTQSPSSLSASVGDRVTITCRASENIYSYFSWYQQKPGKAPKLLIYTAKTLAEGVPSRFSGSGSGTDFTLTISSLQPEDFATYYCQHHYVTPYTFGGGTKVEIK
In the case of B1, the binding entry is given as “binds”.
